Test results as given in patent US20080131910A1.
These are yes or no findings as the source states them, for the method shown. Some entries that bind do so weakly or less than the wild type.

Chains of the proteins cited; added tags and fusions are not shown. Lines headed by an entry give the natural chain unless they say otherwise; changes in a name come on top. Residues count along the entry.
UniProt P37023: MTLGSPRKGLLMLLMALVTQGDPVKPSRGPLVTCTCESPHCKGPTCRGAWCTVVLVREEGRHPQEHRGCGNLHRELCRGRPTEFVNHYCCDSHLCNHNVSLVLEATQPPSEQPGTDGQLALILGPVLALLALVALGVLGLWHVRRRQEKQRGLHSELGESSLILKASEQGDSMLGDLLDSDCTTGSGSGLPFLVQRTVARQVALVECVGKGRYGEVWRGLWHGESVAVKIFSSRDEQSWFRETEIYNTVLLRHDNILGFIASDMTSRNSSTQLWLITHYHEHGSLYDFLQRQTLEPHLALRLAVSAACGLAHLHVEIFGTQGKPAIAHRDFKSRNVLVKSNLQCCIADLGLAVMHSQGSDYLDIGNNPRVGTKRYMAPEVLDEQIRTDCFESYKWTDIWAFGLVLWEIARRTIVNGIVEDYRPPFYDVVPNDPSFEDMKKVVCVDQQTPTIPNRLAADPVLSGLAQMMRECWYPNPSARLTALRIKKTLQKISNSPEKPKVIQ
UniProt P01137, residues 279-390: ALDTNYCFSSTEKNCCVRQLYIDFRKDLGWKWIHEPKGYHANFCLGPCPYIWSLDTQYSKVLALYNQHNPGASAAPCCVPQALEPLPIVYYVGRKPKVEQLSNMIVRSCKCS
UniProt P08476, residues 311-426: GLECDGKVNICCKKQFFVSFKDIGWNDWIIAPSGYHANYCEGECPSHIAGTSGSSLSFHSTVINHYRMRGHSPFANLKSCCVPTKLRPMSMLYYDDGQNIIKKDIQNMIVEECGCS

Assays:
[1] = biological target: T1, ALK-5 endogenous in untransfected porcine aortic endothelial (PAE) cells (porcine) (UniProt Q5CD21); assay: affinity cross-linking (DSS) on untransfected PAE cells, SDS-PAGE and autoradiography
T1 sequence: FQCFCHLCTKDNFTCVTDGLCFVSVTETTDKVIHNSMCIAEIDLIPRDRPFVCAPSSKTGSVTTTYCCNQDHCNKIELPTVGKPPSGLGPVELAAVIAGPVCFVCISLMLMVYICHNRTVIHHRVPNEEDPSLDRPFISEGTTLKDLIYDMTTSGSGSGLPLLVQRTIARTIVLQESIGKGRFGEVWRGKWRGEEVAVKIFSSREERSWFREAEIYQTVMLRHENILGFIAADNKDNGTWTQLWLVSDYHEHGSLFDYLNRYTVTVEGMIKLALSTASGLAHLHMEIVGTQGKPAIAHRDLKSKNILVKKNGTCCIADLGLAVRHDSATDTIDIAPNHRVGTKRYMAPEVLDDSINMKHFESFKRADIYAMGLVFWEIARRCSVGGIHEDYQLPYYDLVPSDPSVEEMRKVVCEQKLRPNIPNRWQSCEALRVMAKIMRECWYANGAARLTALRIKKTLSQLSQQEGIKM

[2] = biological target: ALK-1 (activin receptor like kinase 1), human (human) (UniProt P37023); assay: affinity cross-linking followed by immunoprecipitation, COS-1 cells co-transfected with ActR-II and the ALK
[3] = biological target: ALK-1 (activin receptor like kinase 1), human (human) (UniProt P37023); assay: summary of the affinity cross-linking experiments in co-transfected COS-1 cells
[4] = biological target: T2, ALK-4 endogenous in PAE/Chim A cells (porcine) (UniProt D3K5N5); assay: 125I-activin A cross-linking followed by immunoprecipitation, PAE/Chim A cells
T2 sequence: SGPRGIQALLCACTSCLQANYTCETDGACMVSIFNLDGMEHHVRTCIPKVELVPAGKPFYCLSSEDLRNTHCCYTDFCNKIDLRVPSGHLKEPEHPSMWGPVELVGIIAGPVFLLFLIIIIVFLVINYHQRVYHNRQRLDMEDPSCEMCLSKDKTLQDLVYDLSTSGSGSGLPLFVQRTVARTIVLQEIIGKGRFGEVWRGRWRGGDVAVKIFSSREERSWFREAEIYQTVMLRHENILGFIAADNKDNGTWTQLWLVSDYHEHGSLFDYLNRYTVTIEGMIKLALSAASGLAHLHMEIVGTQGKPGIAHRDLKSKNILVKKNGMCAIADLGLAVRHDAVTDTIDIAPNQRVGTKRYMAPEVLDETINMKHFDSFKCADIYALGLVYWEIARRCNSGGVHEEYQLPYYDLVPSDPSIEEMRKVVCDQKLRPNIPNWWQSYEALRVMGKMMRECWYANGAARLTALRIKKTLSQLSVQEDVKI

| binding [1] | binding [2] | binding [3] | binding [4] | Substance |
| --- | --- | --- | --- | --- |
| binds |  |  |  | Recombinant human TGF-β1 (from UniProt P01137 279-390) (ligand) |
|  | binds | binds | binds | Recombinant human activin A (from UniProt P08476 311-426) (ligand) |
